This note sets out measurements from article PMC11705628.

Protein sequences, listed by entry. Tags and fused reporters are not part of them.
UniProt Q9GZN2: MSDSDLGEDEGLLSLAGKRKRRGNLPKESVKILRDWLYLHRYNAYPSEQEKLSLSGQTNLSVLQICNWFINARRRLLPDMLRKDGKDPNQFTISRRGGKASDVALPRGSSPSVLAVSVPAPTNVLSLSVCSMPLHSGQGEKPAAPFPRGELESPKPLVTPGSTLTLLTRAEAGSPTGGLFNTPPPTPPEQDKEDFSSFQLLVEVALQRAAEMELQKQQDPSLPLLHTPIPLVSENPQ
UniProt Q15796: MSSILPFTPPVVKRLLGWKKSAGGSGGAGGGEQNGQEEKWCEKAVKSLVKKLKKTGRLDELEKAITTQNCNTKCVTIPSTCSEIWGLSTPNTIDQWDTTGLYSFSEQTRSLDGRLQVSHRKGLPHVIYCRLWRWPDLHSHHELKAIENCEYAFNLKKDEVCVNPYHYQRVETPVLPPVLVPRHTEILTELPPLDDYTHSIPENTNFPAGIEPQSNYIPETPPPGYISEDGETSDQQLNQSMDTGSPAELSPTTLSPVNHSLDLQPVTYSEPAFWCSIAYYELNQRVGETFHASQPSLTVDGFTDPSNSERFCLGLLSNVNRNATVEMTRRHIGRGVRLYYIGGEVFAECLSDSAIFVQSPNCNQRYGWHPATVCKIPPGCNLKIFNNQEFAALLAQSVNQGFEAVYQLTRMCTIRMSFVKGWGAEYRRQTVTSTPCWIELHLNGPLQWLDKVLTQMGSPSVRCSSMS

The target of this assay is TGF-β-induced factor homeobox 2 (human (endogenous in BxPC-3)) (UniProt Q9GZN2). Description: co-IP; lysate of BxPC-3 (RIPA lysis buffer; legend: PANC-1 and BxPC-3 cells); TGIF2 antibodies with magnetic beads, overnight at 4°C; immunocomplex boiled in WB loading buffer; input and IgG as controls.

Results are given in words; binding and its absence hold for the method and conditions named. In cells and extracts the contact can be indirect. Some binding calls cover weakened binding; strength is not graded here.

With “SMAD family member 2 (from UniProt Q15796 1-467)”, the binding entry was “binds”.
